Measured values taken from article PMC3083433.
These are yes or no findings as the source states them, for the method shown. In cells and extracts the contact can be indirect. Some binding calls cover weakened binding; strength is not graded here.

Protein sequences, listed by entry. Tags and fused reporters are not part of them. Residues count along the entry.
UniProt P09055, residues 21-798: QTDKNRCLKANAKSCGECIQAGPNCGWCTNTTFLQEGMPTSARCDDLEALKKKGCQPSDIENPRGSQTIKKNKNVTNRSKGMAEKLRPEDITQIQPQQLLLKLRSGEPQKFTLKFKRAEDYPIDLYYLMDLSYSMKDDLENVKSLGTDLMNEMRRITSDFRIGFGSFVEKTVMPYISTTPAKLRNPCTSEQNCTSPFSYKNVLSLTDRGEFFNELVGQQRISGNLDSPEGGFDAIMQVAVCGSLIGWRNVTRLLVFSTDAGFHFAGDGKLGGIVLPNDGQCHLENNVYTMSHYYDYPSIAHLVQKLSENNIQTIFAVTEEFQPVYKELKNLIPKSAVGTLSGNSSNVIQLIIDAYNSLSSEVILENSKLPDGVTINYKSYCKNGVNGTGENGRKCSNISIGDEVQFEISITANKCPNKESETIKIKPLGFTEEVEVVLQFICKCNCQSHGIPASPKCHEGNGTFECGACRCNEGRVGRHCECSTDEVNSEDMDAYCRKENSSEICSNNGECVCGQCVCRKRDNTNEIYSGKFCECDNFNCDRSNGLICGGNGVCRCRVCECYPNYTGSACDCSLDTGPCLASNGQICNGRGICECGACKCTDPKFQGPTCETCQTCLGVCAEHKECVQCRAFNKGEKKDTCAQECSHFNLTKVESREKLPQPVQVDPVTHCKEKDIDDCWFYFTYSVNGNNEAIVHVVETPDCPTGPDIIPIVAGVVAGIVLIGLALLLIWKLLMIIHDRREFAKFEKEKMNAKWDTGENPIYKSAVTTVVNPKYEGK

What was measured:
[1] = biological target: β1 integrins (mouse (endogenous in NIH3T3)) (UniProt P09055); test: co-IP; antibody uptake with surface-bound 9EG7-Fab against β1 integrin after metabolic labelling with 35S-Translabel (tTG induced 3 h before the end of labelling); internalized β1 integrins and associated proteins immunoprecipitated, SDS-PAGE and fluorography; tTG reprecipitated from the β1 integrin immune complexes
[2] = biological target: β1 integrins (mouse (endogenous in NIH3T3)) (UniProt P09055); test: co-IP; β1 integrins immunoprecipitated from total cell lysates of NIH3T3-tTG fibroblasts 3 h after induction of tTG synthesis; immune complexes probed for β1 integrin and tTG by immunoblotting
[3] = biological target: β1 integrins (mouse (endogenous in NIH3T3)) (UniProt P09055); test: co-IP; recycling endosomes isolated from crude membrane fraction with magnetic beads coated with antibody to Rab11 (3 h induction); β1 integrins immunoprecipitated from the endosome lysates; immune complexes probed for β1 integrin and tTG

Measured: binding

B1: tissue transglutaminase (tTG) (enzyme, UniProt P21980 1-687)
chain: MAEELVLERCDLELETNGRDHHTADLCREKLVVRRGQPFWLTLHFEGRNYEASVDSLTFSVVTGPAPSQEAGTKARFPLRDAVEEGDWTATVVDQQDCTLSLQLTTPANAPIGLYRLSLEASTGYQGSSFVLGHFILLFNAWCPADAVYLDSEEERQEYVLTQQGFIYQGSAKFIKNIPWNFGQFEDGILDICLILLDVNPKFLKNAGRDCSRRSSPVYVGRVVSGMVNCNDDQGVLLGRWDNNYGDGVSPMSWIGSVDILRRWKNHGCQRVKYGQCWVFAAVACTVLRCLGIPTRVVTNYNSAHDQNSNLLIEYFRNEFGEIQGDKSEMIWNFHCWVESWMTRPDLQPGYEGWQALDPTPQEKSEGTYCCGPVPVRAIKEGDLSTKYDAPFVFAEVNADVVDWIQQDDGSVHKSINRSLIVGLKISTKSVGRDEREDITHTYKYPEGSSEEREAFTRANHLNKLAEKEETGMAMRIRVGQSMNMGSDFDVFAHITNNTAEEYVCRLLLCARTVSYNGILGPECGTKYLLNLNLEPFSEKSVPLCILYEKYRDCLTESNLIKVRALLVEPVINSYLLAERDLYLENPEIKIRILGEPKQKRKLVAEVSLQNPLPVALEGCTFTVEGAGLTEEQKTVEIPDPVEAGEEVKVRMDLLPLHMGLHKLVVNFESDKLKAVKGFRNVIIGPA
binds: [1] | [2] | [3]
